Test results: US20220356235A1 (STICHTING SANQUIN BLOEDVOORZIENING, published 2022)
Results are given in words; binding and its absence hold for the method and conditions named. Some entries that bind do so weakly or less than the wild type.

What was measured:
[1] = target: T1, human factor H, full length (human, UniProt P08603 19-1231); experiment: competition ELISA: mAb captured on RM-19 coated plate, FH-bt mixed with excess unlabelled full length FH; % of FH-bt binding without competitor
Method: (§1) The location of the epitope of anti-FHR-1 mAbs was determined using recombinant human FH fragments composed of multiple CCP domains (15-18, 15-19, 18-20 or 19-20). In short, anti-FHR-1 mAbs were captured on a RM-19 coated microtiterplate to assure optimal binding conformation. Next, biotinylated FH, mixed with a 100-fold higher concentration of the indicated unlabeled recombinant FH-fragments, was incubated on the plate for 1 hour. Binding of biotinylated FH was determined by incubation with 0.01% (v/v) streptavidin conjugated with poly-HRP, in HPE for 30 min. The ELISA was further developed as described above. To determine whether the anti-FHR-1 mAbs competed with anti-FH.07 for the binding of FH, a similar set-up was used. In short, mAbs were directly coated to the plate and binding of biotinylated FH (FH-bt) in the absence or presence of a 10-fold higher concentration of indicated mAbs was assessed by ELISA as described above.

[2] = target: T1, human factor H, full length; experiment: ELISA: mAb coated directly on the plate, FH-bt added without competing mAb
[3] = target: T1, human factor H, full length; experiment: SPR, mAb captured on ProtA or ProtG chip, full length FH flowed over; summary plot of KD
[4] = target: T2, recombinant human FH fragment CCP 15-19 (human, UniProt P08603 868-1165); experiment: competition ELISA: mAb captured on RM-19 coated plate, FH-bt mixed with 100-fold excess of unlabelled CCP 15-19
T2 construct: domain: CCP 15-19
T2 sequence (looked up): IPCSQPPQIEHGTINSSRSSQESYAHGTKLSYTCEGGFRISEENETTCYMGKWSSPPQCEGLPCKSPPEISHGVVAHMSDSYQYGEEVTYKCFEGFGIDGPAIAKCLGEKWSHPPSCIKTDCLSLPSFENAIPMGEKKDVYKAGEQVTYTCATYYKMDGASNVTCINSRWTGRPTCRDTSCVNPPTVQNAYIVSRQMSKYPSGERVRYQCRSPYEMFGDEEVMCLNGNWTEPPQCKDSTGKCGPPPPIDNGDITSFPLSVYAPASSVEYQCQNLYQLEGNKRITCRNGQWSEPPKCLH
Method: as §1

[5] = target: T3, recombinant human FH fragment CCP 18-20 (human, UniProt P08603 1046-1231); experiment: SPR, mAb captured on ProtA or ProtG chip, FH CCP 18-20 flowed over; summary plot of KD
T3 construct: domain: CCP 18-20; also called fragment of FH comprised of domain 18-20
T3 sequence (looked up): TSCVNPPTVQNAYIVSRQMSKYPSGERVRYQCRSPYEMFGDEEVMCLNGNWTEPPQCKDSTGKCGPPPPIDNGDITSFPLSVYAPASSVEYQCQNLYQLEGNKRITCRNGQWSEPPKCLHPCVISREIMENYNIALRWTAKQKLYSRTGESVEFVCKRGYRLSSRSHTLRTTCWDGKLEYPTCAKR

[6] = target: T1, human factor H, full length; experiment: ELISA: anti-FH.07 coated directly on the plate, FH-bt added without competing mAb
[7] = target: T4, recombinant human FH fragment CCP 15-18 (human, UniProt P08603 868-1104); experiment: competition ELISA: mAb captured on RM-19 coated plate, FH-bt mixed with 100-fold excess of unlabelled CCP 15-18
T4 construct: domain: CCP 15-18
T4 sequence (looked up): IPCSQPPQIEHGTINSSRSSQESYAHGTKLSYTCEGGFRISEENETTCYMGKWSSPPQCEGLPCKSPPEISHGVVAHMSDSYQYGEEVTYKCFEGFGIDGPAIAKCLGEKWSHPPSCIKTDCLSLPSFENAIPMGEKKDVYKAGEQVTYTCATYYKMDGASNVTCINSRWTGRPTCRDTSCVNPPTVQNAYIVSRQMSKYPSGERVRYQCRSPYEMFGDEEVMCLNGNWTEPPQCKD
Method: as §1

[8] = target: T1, human factor H, full length; experiment: SPR
[9] = target: T3, recombinant human FH fragment CCP 18-20; experiment: SPR
[10] = target: T3, recombinant human FH fragment CCP 18-20; experiment: competition ELISA: mAb captured on RM-19 coated plate, FH-bt mixed with 100-fold excess of unlabelled CCP 18-20
Method: as §1

Measured: binding

B1: anti-FH.07 (antibody, V domains shown)
VH: QVQLQQSGPGLVQPSQSLSITCTVSDFSLARYGVHWIRQSPGKGLEWLGVIWSGGTADYNAAFISRLNINKDNSKSQVFFKMNSLQANDTAIYYCARNFGNYAVDYWGQGTS
VL: QIVLSQSPTFLSASPGEKVTVTCRASSSVKYMHWYQQKPGASPKPWIFATSNLASGVPARFSGSGSGTSYSLTISRVEAEDAATYYCQQWSIIPPTFGNGTKLELK
binds: all assays above
